Reference: patent publication US10435388B2, “Selective inhibitors of clinically important mutants of the EGFR tyrosine kinase” (CS PHARMATECH LIMITED, priority 2016, dated 2019)
Not every entry of the source has a single result; some have several. Only these are listed. There may be further records. For some of these results: Results that share an entry read as repeated measurements on other runs, samples or individuals. For some of these results: Values that stand side by side read as repeated measurements on other runs, samples or individuals; a mean can stand among them.

The chains behind the UniProt entries cited, without tags or fusion partners. Residues count along the entry.
UniProt P08069, 959-1367 limits assumed: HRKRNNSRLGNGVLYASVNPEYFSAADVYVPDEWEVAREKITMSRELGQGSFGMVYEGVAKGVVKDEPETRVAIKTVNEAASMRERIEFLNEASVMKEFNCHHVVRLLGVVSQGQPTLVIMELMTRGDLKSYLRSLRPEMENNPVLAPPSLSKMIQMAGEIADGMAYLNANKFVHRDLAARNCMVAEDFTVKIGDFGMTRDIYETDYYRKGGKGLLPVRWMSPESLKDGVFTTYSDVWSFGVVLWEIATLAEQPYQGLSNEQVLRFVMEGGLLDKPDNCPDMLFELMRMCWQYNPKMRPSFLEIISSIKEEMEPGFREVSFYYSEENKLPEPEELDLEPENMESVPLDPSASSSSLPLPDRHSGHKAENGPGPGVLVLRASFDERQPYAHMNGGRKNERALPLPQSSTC

What was measured:
PC9 cells (SM) = test: PC-9 growth inhibition assay (cell proliferation), Method B; details: read-out: SM (PC9) IC50 nM, cellular proliferation, 72 h, several runs
H1975 cells (DM) = test: H1975 inhibition assay (cell proliferation), Method B; type: cell-based; details: read-out: DM (H1975) IC50 nM, cellular proliferation, 72 h, several runs
IGF-1R = IGF-1R (Homo sapiens, UniProt P08069); test: IGF-1R inhibition assay (Caliper EZ Reader); details: read-out: IC50 (nM) IGF-1R; enzyme assay
A431 cells (WT) = test: A431 inhibition assay (cell proliferation), Method B; details: read-out: WT (A431) IC50 nM, cellular proliferation, 72 h, several runs

- IC50 (IGF-1R): 35.8 nM and 75.7 nM
SMILES: C=CC(=O)Nc1cc(Nc2nccc(-c3c[nH]c4ccccc34)n2)c(OC)cc1N(C)CCN(C)C [AZD-5104]
- IC50 (PC9 cells (SM)): 5.31, 4.8, 2.25, 2.65, 2.61, 1.81, 3.8, 6.22, 3.65 nM
- IC50 (H1975 cells (DM)): 3.76, 11.8, 3.66, 3.2, 5.6, 3.31, 3.28, 5.03, 9.95, 3.27, 1.77 nM
- IC50 (A431 cells (WT)): 42, 199, 123, 47.8, 33.4, 80.6, 79.2, 62.5, 415, 48.7, 34.9 nM
